{"source": "patent US20130324493A1", "about": "“COMPOSITIONS COMPRISING NINGNANMYCIN AND USES THEREFOR” (North Carolina State University, priority 2012, published 2013)", "origin": "cited, not measured here", "details": "cited from earlier work", "note": "Where two headings read alike, the source gives them in different places."}
{"smiles": "CNCC(=O)NC(CO)C(=O)NC1C(C(N)=O)OC(n2ccc(N)nc2=O)C(O)C1O", "note": "[ningnanmycin, 4-sarcosinamido-L-serinamido-4-deoxy-β-D-pyranoglucuronamido]", "values": [{"measurement": "Residues on treated crop and soil", "setting": "Bean field soil", "value": 0.0034, "unit": "µg/mL"}, {"measurement": "Residues on treated crop and soil", "setting": "Bean", "value": 0.0160, "unit": "µg/mL"}, {"measurement": "Residues on treated crop and soil", "setting": "Cucumber field soil", "value": "Undetectable"}, {"measurement": "Residues on treated crop and soil", "setting": "Hay", "value": 0.1133, "unit": "µg/mL"}, {"measurement": "Residues on treated crop and soil", "setting": "Husk", "value": 0.1113, "unit": "µg/mL"}, {"measurement": "Residues on treated crop and soil", "setting": "Rice field soil", "value": 0.0003, "unit": "µg/mL"}, {"measurement": "Residues on treated crop and soil", "setting": "Rice field water", "value": "Undetectable"}, {"measurement": "Residues on treated crop and soil", "setting": "Rice grain", "value": 0.0350, "unit": "µg/mL"}, {"measurement": "Residues on treated crop and soil", "setting": "Rice leaf", "value": 0.0952, "unit": "µg/mL"}, {"measurement": "Residues on treated crop and soil", "setting": "Wheat grain", "value": 0.0002, "unit": "µg/mL"}]}
